In assay [1] the target is T1, Flag-tagged duck RIG-I (Flag-duRIG-I) (duck) (UniProt D3TI84).
T1 sequence: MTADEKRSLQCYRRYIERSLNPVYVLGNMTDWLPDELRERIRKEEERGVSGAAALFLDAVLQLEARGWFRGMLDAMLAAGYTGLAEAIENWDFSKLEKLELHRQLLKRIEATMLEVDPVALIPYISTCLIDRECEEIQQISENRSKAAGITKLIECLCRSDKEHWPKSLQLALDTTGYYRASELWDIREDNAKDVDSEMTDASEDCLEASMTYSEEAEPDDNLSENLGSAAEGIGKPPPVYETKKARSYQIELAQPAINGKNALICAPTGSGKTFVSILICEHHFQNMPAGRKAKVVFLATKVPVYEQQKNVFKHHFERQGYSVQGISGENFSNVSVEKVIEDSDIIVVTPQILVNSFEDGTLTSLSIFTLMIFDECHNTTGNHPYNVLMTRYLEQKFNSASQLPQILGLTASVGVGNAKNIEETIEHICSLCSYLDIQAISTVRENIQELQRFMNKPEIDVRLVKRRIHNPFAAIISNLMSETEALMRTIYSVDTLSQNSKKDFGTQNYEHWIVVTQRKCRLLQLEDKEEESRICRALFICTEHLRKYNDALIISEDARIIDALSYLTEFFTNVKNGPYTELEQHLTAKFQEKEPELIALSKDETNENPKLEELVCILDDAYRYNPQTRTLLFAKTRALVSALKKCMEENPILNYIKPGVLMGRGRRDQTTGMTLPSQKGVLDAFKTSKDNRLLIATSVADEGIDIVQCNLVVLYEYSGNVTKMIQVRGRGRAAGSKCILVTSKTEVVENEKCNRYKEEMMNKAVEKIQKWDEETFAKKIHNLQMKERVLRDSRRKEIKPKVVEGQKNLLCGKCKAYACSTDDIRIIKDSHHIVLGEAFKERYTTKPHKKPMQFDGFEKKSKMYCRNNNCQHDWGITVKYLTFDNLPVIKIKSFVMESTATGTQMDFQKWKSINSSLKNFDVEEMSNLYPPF
Kind of assay: co-IP; HEK-293T cells cotransfected; lysate in Co-IP buffer (Beyotime) with protease inhibitors; immunoprecipitated with anti-Flag antibody overnight at 4°C, protein A/G plus agarose, 4 washes; immunoblot. For orientation: Immunoblotting shows a protein as a band on a membrane.

For assay [2], the target named is T2, Myc-tagged duck RIG-I (Myc-duRIG-I) (duck) (UniProt D3TI84).
T2 sequence: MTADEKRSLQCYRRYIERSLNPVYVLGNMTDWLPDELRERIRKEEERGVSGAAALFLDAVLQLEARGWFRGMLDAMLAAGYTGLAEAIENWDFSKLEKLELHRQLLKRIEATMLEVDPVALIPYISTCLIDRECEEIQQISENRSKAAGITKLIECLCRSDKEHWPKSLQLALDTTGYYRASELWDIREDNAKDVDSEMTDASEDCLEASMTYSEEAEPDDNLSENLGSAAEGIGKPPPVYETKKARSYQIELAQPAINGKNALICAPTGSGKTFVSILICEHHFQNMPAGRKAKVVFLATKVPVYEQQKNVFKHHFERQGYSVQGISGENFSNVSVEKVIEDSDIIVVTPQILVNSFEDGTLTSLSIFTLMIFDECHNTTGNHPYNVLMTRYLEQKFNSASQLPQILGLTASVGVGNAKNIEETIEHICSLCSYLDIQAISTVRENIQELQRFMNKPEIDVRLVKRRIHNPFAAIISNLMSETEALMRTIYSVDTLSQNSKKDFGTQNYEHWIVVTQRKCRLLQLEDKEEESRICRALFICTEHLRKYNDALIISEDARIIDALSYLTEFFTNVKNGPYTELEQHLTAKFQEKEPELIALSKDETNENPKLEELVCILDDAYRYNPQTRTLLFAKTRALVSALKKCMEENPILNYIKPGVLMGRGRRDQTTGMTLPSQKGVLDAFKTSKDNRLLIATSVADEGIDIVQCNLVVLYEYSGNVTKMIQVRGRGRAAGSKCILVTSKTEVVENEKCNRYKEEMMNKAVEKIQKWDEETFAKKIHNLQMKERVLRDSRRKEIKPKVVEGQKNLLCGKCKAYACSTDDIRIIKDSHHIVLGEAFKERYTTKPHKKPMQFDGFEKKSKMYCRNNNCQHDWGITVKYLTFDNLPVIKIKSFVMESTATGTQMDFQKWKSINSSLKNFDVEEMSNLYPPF
In words: co-IP; HEK-293T cells cotransfected with Myc-duRIG-I and HA-duTRIM25, along with Flag-duTRIM35 or an empty vector; lysate immunoprecipitated with anti-Myc antibodies; immunoblot.

Assay [3] deals with Flag-tagged duck TRIM35 (Flag-duTRIM35) (duck). Kind of assay: co-IP; HEK-293T cells cotransfected; lysate in Co-IP buffer (Beyotime) with protease inhibitors; immunoprecipitated with anti-Flag antibody overnight at 4°C, protein A/G plus agarose, 4 washes; immunoblot.
Assay [4] addresses Flag-tagged duck TRIM25 (Flag-duTRIM25) (duck). The description is as above.

These are yes or no findings as the source states them, for the method shown. In cells and extracts the contact can be indirect. Binding calls can cover weak binding; strength is not graded here. Sequences can lack the tags named with a protein.

In the case of HA-tagged duck TRIM35 (HA-duTRIM35), the binding result in assay [1] was “binds”. In the case of HA-tagged duck TRIM25 (HA-duTRIM25), the binding result in assay [2] is listed as “binds”.

B1: HA-tagged duck RIG-I (HA-duRIG-I) (protein, UniProt D3TI84 1-933)
chain: MTADEKRSLQCYRRYIERSLNPVYVLGNMTDWLPDELRERIRKEEERGVSGAAALFLDAVLQLEARGWFRGMLDAMLAAGYTGLAEAIENWDFSKLEKLELHRQLLKRIEATMLEVDPVALIPYISTCLIDRECEEIQQISENRSKAAGITKLIECLCRSDKEHWPKSLQLALDTTGYYRASELWDIREDNAKDVDSEMTDASEDCLEASMTYSEEAEPDDNLSENLGSAAEGIGKPPPVYETKKARSYQIELAQPAINGKNALICAPTGSGKTFVSILICEHHFQNMPAGRKAKVVFLATKVPVYEQQKNVFKHHFERQGYSVQGISGENFSNVSVEKVIEDSDIIVVTPQILVNSFEDGTLTSLSIFTLMIFDECHNTTGNHPYNVLMTRYLEQKFNSASQLPQILGLTASVGVGNAKNIEETIEHICSLCSYLDIQAISTVRENIQELQRFMNKPEIDVRLVKRRIHNPFAAIISNLMSETEALMRTIYSVDTLSQNSKKDFGTQNYEHWIVVTQRKCRLLQLEDKEEESRICRALFICTEHLRKYNDALIISEDARIIDALSYLTEFFTNVKNGPYTELEQHLTAKFQEKEPELIALSKDETNENPKLEELVCILDDAYRYNPQTRTLLFAKTRALVSALKKCMEENPILNYIKPGVLMGRGRRDQTTGMTLPSQKGVLDAFKTSKDNRLLIATSVADEGIDIVQCNLVVLYEYSGNVTKMIQVRGRGRAAGSKCILVTSKTEVVENEKCNRYKEEMMNKAVEKIQKWDEETFAKKIHNLQMKERVLRDSRRKEIKPKVVEGQKNLLCGKCKAYACSTDDIRIIKDSHHIVLGEAFKERYTTKPHKKPMQFDGFEKKSKMYCRNNNCQHDWGITVKYLTFDNLPVIKIKSFVMESTATGTQMDFQKWKSINSSLKNFDVEEMSNLYPPF
As for B1, the binding entry in assay [3] and in assay [4] was “binds” in each case.

Source of the values: PMC9769614.
